The values below come from article PMC11068552.

By UniProt entry, the sequences of proteins in these tests, tags left out.
UniProt Q6IAA8: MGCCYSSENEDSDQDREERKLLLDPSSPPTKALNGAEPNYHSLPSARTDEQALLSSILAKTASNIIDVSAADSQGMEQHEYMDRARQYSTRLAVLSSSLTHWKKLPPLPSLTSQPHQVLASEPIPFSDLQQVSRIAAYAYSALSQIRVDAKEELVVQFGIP

These are yes or no findings as the source states them, for the method shown. Binding seen in cells or lysates may run through a third protein. Some results given as binding are weak or reduced against the parent protein; the word gives no strength.

This test concerns the target Ragulator complex protein p18/LAMTOR1 (human (endogenous in GBC-SD and SGC-996)) (UniProt Q6IAA8). As to the kind of experiment: co-IP; endogenous proteins in RIPA lysates of GBC-SD and SGC-996 cells; immunoprecipitation with the indicated antibodies, protein G agarose, 4°C overnight, western blot. Background: In western blotting, separated proteins are transferred to a membrane and probed.

B1: RING finger protein 152 (protein, UniProt Q8N8N0 1-203)
chain: METLSQDSLLECQICFNYYSPRRRPKLLDCKHTCCSVCLQQMRTSQKDVRCPWCRGVTKLPPGFSVSQLPDDPEVLAVIAIPHTSEHTPVFIKLPSNGCYMLPLPISKERALLPGDMGCRLLPGSQQKSVTVVTIPAEQQPLQGGAPQEAVEEEQDRRGVVKSSTWSGVCTVILVACVLVFLLGIVLHNMSCISKRFTVISCG
For the molecule B1, the binding entry was “binds”.
